PubChem BioAssay AID743458 | Peter MacCallum Cancer Centre – 2014

Aim: 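Retest earlier hits with independent siRNAs per gene for restoring vorinostat sensitivity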 (follow-up of hits)
Cell system: human HCT116-VR colon cancer cells made resistant to vorinostat
Knock-down reagent: single siRNA or pool against human genes, 25 nM per single siRNA
Time to read-out: about 72 h after transfection, including 24 h of drug
Challenge: vorinostat, 2.5 µM final, for 24 h
Measurement: 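Cell viability by fluorescence and apoptosis by caspase 3/7 luminescence under vorinostat, background-corrected, averaged across two plate copies and given as fold change versus mock transfection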
Reading the numbers: viability relative to mock: higher = more living cells than mock; caspase activity relative to mock: higher = more apoptosis than mock
Active means: 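Active means a reduced-viability or caspase-activation class, anything else inactive; classes could only be given to wells that looked healthy when left untreated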
This is a random part of about 1,800 reagents tested. Over the whole deposit, 732 (41%) got an active call. 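Calls are per siRNA reagent; a gene was deemed confirmed only if most of its four siRNAs scored.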 Reagents against one gene are numbered here.

ANO9 #1
- viability relative to mock: 0.72
- caspase activity relative to mock: 1.43
- viability hit class: no change
- caspase hit class: no change
- call: inactive

ANO9 #2
- viability relative to mock: 0.58
- caspase activity relative to mock: 3.65
- viability hit class: no change
- caspase hit class: caspase activation
- call: active

ANO9 #3
- viability relative to mock: 0.92
- caspase activity relative to mock: 4.16
- viability hit class: no change
- caspase hit class: caspase activation
- call: active

ANO9 #4
- viability relative to mock: 0.76
- caspase activity relative to mock: 2.68
- viability hit class: no change
- caspase hit class: caspase activation
- call: active

OR6T1 #1
- viability relative to mock: 0.24
- caspase activity relative to mock: 4.66
- viability hit class: reduced viability
- caspase hit class: caspase activation
- call: active

OR6T1 #2
- viability relative to mock: 0.92
- caspase activity relative to mock: 2.85
- viability hit class: no change
- caspase hit class: caspase activation
- call: active

OR6T1 #3
- viability relative to mock: 0.77
- caspase activity relative to mock: 3.33
- viability hit class: no change
- caspase hit class: caspase activation
- call: active

OR6T1 #4
- viability relative to mock: 0.92
- caspase activity relative to mock: 1.04
- viability hit class: no change
- caspase hit class: no change
- call: inactive

RHBDD3 #1
- viability relative to mock: 0.58
- caspase activity relative to mock: 1.82
- viability hit class: no change
- caspase hit class: no change
- call: inactive

RHBDD3 #2
- viability relative to mock: 0.72
- caspase activity relative to mock: 1.56
- viability hit class: no change
- caspase hit class: no change
- call: inactive

RHBDD3 #3
- viability relative to mock: 0.75
- caspase activity relative to mock: 4
- viability hit class: no change
- caspase hit class: caspase activation
- call: active

RHBDD3 #4
- viability relative to mock: 0.85
- caspase activity relative to mock: 2.11
- viability hit class: no change
- caspase hit class: no change
- call: inactive
